# Measurements taken from the supplement of paper PMC12819154, “High-throughput peptide-centric local stability assay extends protein–ligand identification to membrane proteins, tissues and bacteria” (Nature Structural & Molecular Biology, 2025).
# Chains of the proteins cited; added tags and fusions are not shown. Lines headed by an entry give the natural chain unless they say otherwise; changes in a name come on top.
# UniProt P52037: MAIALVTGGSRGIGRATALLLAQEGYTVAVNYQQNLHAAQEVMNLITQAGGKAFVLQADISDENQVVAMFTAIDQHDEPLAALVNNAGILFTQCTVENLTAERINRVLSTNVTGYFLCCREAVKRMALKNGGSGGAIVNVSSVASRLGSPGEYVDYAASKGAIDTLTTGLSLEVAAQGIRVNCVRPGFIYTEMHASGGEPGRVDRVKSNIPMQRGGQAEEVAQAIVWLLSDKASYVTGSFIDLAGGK
# UniProt P54901: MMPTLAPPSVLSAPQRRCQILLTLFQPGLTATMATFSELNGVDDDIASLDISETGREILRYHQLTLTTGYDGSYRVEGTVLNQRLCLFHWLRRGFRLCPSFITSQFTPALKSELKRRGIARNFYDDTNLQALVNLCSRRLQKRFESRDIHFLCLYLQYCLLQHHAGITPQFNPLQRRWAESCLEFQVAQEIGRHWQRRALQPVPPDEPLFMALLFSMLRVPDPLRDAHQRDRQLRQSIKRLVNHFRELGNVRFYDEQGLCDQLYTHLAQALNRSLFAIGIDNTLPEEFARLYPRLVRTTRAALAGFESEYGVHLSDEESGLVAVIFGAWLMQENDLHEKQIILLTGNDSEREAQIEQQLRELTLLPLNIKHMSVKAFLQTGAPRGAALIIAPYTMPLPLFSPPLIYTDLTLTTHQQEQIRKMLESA
# Some of the results follow. Most values lie at the level of the controls, where differences are scatter.
# Compound: CC1(C)S[C@@H]2[C@H](NC(=O)[C@H](N)c3ccccc3)C(=O)N2[C@H]1C(=O)O [ampicillin]
# Assay: log2 fold change of tryptic peptide abundance, ligand vs vehicle (limited proteolysis) (log2 ratio); higher = more trypsin-susceptible (destabilized)
# Details: ligand concentration: 10 uM; sample: E. coli crude lysate
row,Target,log2 fold change
1,"UniProt P75829 (peptide sequence: ACHGLFPK, peptide start residue: 219)",0.239
2,"UniProt P52037 (peptide sequence: VKSNIPMQR, peptide start residue: 206)",0.146
3,"UniProt P54901 (peptide sequence: VPDPLRDAHQR, peptide start residue: 220)",-0.362
